# The supplement of paper PMC10735217
# The list shows a part of the results. Repeats in this data set agree poorly, so a single value says little.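 In a drug-repurposing library screen, luminescence reads luciferase driven by eight TEAD-binding elements, stably integrated into human kidney-derived cells. Compounds scoring over five robust Z scores above the plate mean are called hits.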
# System: HEK293A TEAD-LUC reporter
# Test: TEAD-luciferase reporter activity (YAP activation), robust Z score vs plate; higher = stronger YAP/TEAD activation
# Conditions: 24 h
Compound,TEAD-luciferase reporter activity (compound concentration: 200 nM),TEAD-luciferase reporter activity (compound concentration: 2 uM),TEAD-luciferase reporter activity (compound concentration: 10 uM)
NC(=O)[C@@H]1CCCN1C(=O)[C@H](Cc1cnc[nH]1)NC(=O)[C@@H]1CC(=O)N1,inactive: -1.67,inactive: -0.359,inactive: 4.84
NC1(C(=O)N[C@@H](CCO)c2ccc(Cl)cc2)CCN(c2ncnc3[nH]ccc23)CC1,inactive: 0.321,inactive: 1.66,inactive: 3.2
COc1nc(C(Cl)(Cl)Cl)c(Cl)c(OC)c1Cl,inactive: -0.177,inactive: 1.1,inactive: 0.3
CC(=O)NC[C@H]1CN(c2ccc(N3CCN(C(=O)COP(=O)(O)O)CC3)c(F)c2)C(=O)O1,inactive: -0.84,inactive: -0.16,inactive: 1.86
CC(C)n1nc(-c2cccc(Cl)c2Cl)c(=N)[nH]c1=N [Palatrigine],inactive: -0.793,inactive: 0.976,inactive: 1.6
COC(=O)[C@@H]1C[C@H](Oc2ccc(Cl)cc2)CN1,inactive: 2.4,inactive: -1.28,inactive: 1.08
CCN(c1nc(C)cc(N2CC=C(c3cccc(F)c3)CC2)n1)c1ccc(C(C)C)cc1SC,inactive: -0.282,inactive: 0.172,inactive: -1.2
CC1CCN(C(=O)[C@H](CCCNC(=N)N)NS(=O)(=O)c2cccc3c(N(C)C)cccc23)CC1,inactive: -1.22,inactive: -1.05,inactive: -0.506
CCC(=O)NCC[C@@H]1CCc2ccc3c(c21)CCO3 [ramelteon],inactive: 0.195,inactive: -0.19,inactive: -1.59
Cn1cc(-c2ccc(S(=O)(=O)n3ccc(/C=C/C(=O)Nc4ccccc4N)c3)cc2)cn1,active: 7.63,active: 5.12,inactive: 4.01
CC/C(=C(/c1ccc(/C=C/C(=O)O)cc1)c1ccc2[nH]ncc2c1)c1ccc(F)cc1Cl,inactive: -0.187,inactive: 1.42,inactive: 0.588
COc1ccc2[nH]c(S(=O)Cc3ncc(C)c(OC)c3C)nc2c1 (stereo not drawn) [Esomeprazole sodium],–,inactive: 2.87,–
COc1ccc2[nH]c(S(=O)Cc3ncc(C)c(OC)c3C)nc2c1 (stereo not drawn) [Omeprazole sodium],–,inactive: -1.35,–
COc1ccc2[nH]c(S(=O)Cc3ncc(C)c(OC)c3C)nc2c1 (stereo not drawn),inactive: -0.212,–,active: 5.47
CNCC/C=C/1\c2ccccc2C2C(c3c1cccc3)C2 (stereo not drawn),inactive: -0.871,inactive: -0.997,inactive: 2.85
CCC(CC)(CC(=O)Nc1cccc(/C=C/c2nc(C(C)C)cs2)c1)C(=O)O,inactive: -1.94,inactive: -0.44,inactive: 0.82

# Shown as tab-separated lines: entries from further up
Compound	TEAD-luciferase reporter activity (compound concentration: 200 nM)	TEAD-luciferase reporter activity (compound concentration: 2 uM)	TEAD-luciferase reporter activity (compound concentration: 10 uM)
CC(=O)NC[C@H]1CN(c2ccc(N3CCN(C(=O)COP(=O)(O)O)CC3)c(F)c2)C(=O)O1	inactive: -0.84	inactive: -0.16	inactive: 1.86
CNCC/C=C/1\c2ccccc2C2C(c3c1cccc3)C2 (stereo not drawn)	inactive: -0.871	inactive: -0.997	inactive: 2.85
